From publication PMC8748766, “The catalytic activity of TCPTP is auto-regulated by its intrinsically disordered tail and activated by Integrin alpha-1” (Nature Communications, 2022) come the findings set out here.

This series is described as follows: SAXS (inline HPLC-SAXS). Conditions: TCPTPCAT residues 1–314; for Rg (from Guinier): 50 mM Tris-HCl pH 7.4, 50 mM NaCl, 5% Glycerol, 1 mM TCEP, 288 K; for Dmax / Porod Volume / Rg [from P(r)] / Volume of correlation (Vc): pH 7.4, 288 K. Also on record: species or system Homo sapience.

B1: TCPTP: T-Cell Protein Tyrosine Phosphatase, TC45 isoform, full-length residues 1–387 (protein)
chain: MPTTIEREFEELDTQRRWQPLYLEIRNESHDYPHRVAKFPENRNRNRYRDVSPYDHSRVKLQNAENDYINASLVDIEEAQRSYILTQGPLPNTCCHFWLMVWQQKTKAVVMLNRIVEKESVKCAQYWPTDDQEMLFKETGFSVKLLSEDVKSYYTVHLLQLENINSGETRTISHFHYTTWPDFGVPESPASFLNFLFKVRESGSLNPDHGPAVIHCSAGIGRSGTFSLVDTCLVLMEKGDDINIKQVLLNMRKYRMGLIQTPDQLRFSYMAIIEGAKCIKGDSSIQKRWKELSKEDLSPAFDHSPNKIMTEKYNGNRIGLEEEKLTGDRCTGLSSKMQDTMEENSESALRKRIREDRKATTAQKVQQMKQRLNENERKRKRPRLTDT
modifications: left off: His6, N-terminal, cleaved
In the case of B1, the “Rg (from Guinier)” value amounted to 37.3 ± 0.1 Å, the Dmax is reported as 165 Å, the “Porod Volume” value is given as 98700 Å3 and the “Rg [from P(r)]” value is 38.5 ± 0.9 Å. In addition, the “Volume of correlation (Vc)” value amounted to 475.

B2: TCPTPCAT: TCPTP catalytic domain, residues 1–288, 1–302 (NMR) or 1–314 (activity, SAXS) (protein, UniProt P17706 1-314, looked up, fragment)
chain: MPTTIEREFEELDTQRRWQPLYLEIRNESHDYPHRVAKFPENRNRNRYRDVSPYDHSRVKLQNAENDYINASLVDIEEAQRSYILTQGPLPNTCCHFWLMVWQQKTKAVVMLNRIVEKESVKCAQYWPTDDQEMLFKETGFSVKLLSEDVKSYYTVHLLQLENINSGETRTISHFHYTTWPDFGVPESPASFLNFLFKVRESGSLNPDHGPAVIHCSAGIGRSGTFSLVDTCLVLMEKGDDINIKQVLLNMRKYRMGLIQTPDQLRFSYMAIIEGAKCIKGDSSIQKRWKELSKEDLSPAFDHSPNKIMTEKYN
modifications: catalytic domain
On to B2, for which the “Rg (from Guinier)” value is given as 27.2 ± 0.1 Å, the Dmax came out at 105 Å, the “Porod Volume” value is reported as 69900 Å3 and the “Rg [from P(r)]” value was found to be 26.6 ± 0.4 Å. The “Volume of correlation (Vc)” value is on record as 364.
